Reference: patent US6545127B1, “Catalytically active recombinant memapsin and methods of use thereof” (Oklahoma Medical Research Foundation, priority 1999, dated 2003)
Not every detail of the peptide structures is certain; ends, links or a residue may be inferred. No end group written: not given here.

Protein sequences, listed by entry. Tags and fused reporters are not part of them. Residues count along the entry.
UniProt P56817, 14-419 limits assumed: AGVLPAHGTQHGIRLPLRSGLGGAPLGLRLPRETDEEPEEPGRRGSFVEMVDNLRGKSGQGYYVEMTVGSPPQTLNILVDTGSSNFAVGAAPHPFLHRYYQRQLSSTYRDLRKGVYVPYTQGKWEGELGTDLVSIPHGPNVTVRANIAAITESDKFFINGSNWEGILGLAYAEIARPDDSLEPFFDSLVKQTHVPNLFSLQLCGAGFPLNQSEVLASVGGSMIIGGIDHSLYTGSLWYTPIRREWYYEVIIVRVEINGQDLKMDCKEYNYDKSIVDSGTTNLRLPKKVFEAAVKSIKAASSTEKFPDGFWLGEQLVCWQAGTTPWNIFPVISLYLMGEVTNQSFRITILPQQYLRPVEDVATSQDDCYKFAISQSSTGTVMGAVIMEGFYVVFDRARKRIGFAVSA

Target: T1, M2pd (Homo sapiens, UniProt P56817)
T1 construct: 15 N-terminal residues from vector pET11a (T7 protein leader) (N, cleaved yes); made in house
Assay: Steady-state kinetics of hydrolysis of peptide substrates by M2pd
Type: biochemical
Protocol: Incubation in 0.1M sodium acetate, pH 4.0, for 16 h at 22° C. auto-catalytically converted pro-M2pd to M2pd . For initial hydrolysis tests, two synthetic peptides were separately incubated with pro-M2pd in 0.1M Na acetate, pH 4.0 for different periods ranging from 2 to 18 h. The incubated samples were subjected to LC/MS for the identification of the hydrolytic products. For kinetic studies, the identified HPLC (Beckman System Gold) product peaks were integrated for quantitation. The Km and kcat values for presenilin 1 and Swedish APP peptides (Table 1) were measured by steady-state kinetics. The individual Km and Kcat values for APP peptide could not be measured accurately by standard methods, so its kcat/Km value was measured by competitive hydrolysis of mixed substrates against presenilin 1 peptide (Fersht, A. “Enzyme Structure and Mechanism”, 2nd Ed., W. H. Freeman and Company, New York. (1985)).

SEVNLDAEFR [Swedish APP peptide, SEVNL/DAEFR]
increase of kcat/Km over that for native APP (Swedish mutant versus native APP beta-secretase site): 60 fold | kcat (peptide substrate hydrolysed by M2pd, pH 4.0): 2.45 s⁻¹
